Results are given in words; binding and its absence hold for the method and conditions named. Binding seen in cells or lysates may run through a third protein. Binding can be weak; no strength is given.
What was measured:
[1] = biological target: N-cadherin (human (endogenous in PLC cells and in human HCC tissue)) (UniProt P19022); experiment: co-IP; whole-cell lysates of PLC cells; 1% Triton X-100, RIPA or Empigen immunoprecipitation buffers (150 mM NaCl, 5 mM EDTA or 0.5 mM CaCl2); antibodies against E- or N-cadherin on protein G/A magnetic beads, 4 °C overnight; SDS-PAGE and immunoblot; unrelated mouse myeloma IgG1 as control
[2] = biological target: E-cadherin (human (endogenous in PLC cells and in human HCC tissue)); experiment: as above

Amino acid sequences for entries named in this document (tags omitted). Residues count along the entry.
UniProt P19022, residues 160-906: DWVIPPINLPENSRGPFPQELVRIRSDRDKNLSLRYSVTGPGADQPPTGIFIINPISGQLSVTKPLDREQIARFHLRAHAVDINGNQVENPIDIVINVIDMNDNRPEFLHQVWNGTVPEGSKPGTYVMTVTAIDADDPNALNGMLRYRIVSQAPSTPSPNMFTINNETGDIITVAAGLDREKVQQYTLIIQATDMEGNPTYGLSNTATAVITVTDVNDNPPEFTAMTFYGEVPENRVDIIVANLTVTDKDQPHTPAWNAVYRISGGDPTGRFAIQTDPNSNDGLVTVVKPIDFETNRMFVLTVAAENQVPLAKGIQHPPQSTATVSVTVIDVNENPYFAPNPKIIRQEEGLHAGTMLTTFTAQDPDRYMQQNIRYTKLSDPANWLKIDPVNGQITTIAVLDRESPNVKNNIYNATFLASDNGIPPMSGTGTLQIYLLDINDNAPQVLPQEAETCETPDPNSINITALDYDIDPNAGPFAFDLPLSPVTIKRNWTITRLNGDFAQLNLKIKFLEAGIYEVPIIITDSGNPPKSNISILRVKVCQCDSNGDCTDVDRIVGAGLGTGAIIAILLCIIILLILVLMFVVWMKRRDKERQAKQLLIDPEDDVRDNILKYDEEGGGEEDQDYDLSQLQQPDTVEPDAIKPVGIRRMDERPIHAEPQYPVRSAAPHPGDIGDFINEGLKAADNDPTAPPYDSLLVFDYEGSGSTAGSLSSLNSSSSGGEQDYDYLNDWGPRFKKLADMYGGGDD

Row | binding [1] | binding [2] | Molecule
1 | binds |  | vinculin (from UniProt P18206-2)
2 |  | binds | plakoglobin (protein, UniProt P14923 1-745) MEVMNLMEQPIKVTEWQQTYTYDSGIHSGANTCVPSVSSKGIMEEDEACGRQYTLKKTTTYTQGVPPSQGDLEYQMSTTARAKRVREAMCPGVSGEDSSLLLATQVEGQATNLQRLAEPSQLLKSAIVHLINYQDDAELATRALPELTKLLNDEDPVVVTKAAMIVNQLSKKEASRRALMGSPQLVAAVVRTMQNTSDLDTARCTTSILHNLSHHREGLLAIFKSGGIPALVRMLSSPVESVLFYAITTLHNLLLYQEGAKMAVRLADGLQKMVPLLNKNNPKFLAITTDCLQLLAYGNQESKLIILANGGPQALVQIMRNYSYEKLLWTTSRVLKVLSVCPSNKPAIVEAGGMQALGKHLTSNSPRLVQNCLWTLRNLSDVATKQEGLESVLKILVNQLSVDDVNVLTCATGTLSNLTCNNSKNKTLVTQNSGVEALIHAILRAGDKDDITEPAVCALRHLTSRHPEAEMAQNSVRLNYGIPAIVKLLNQPNQWPLVKATIGLIRNLALCPANHAPLQEAAVIPRLVQLLVKAHQDAQRHVAAGTQQPYTDGVRMEEIVEGCTGALHILARDPMNRMEIFRLNTIPLFVQLLYSSVENIQRVAAGVLCELAQDKEAADAIDAEGASAPLMELLHSRNEGTATYAAAVLFRISEDKNPDYRKRVSVELTNSLFKHDPAAWEAAQSMIPINEPYGDDMDATYRPMYSSDVPLDPLEMHMDMDGDYPIDTYSDGLRPPYPTADHMLA

Reference: article PMC9406782
